# Assay results: the supplement of paper PMC10032668
# By UniProt entry, the sequences of proteins in these tests, tags left out.
# GRWD1, Q9BQ67, UniProt Q9BQ67, whole entry: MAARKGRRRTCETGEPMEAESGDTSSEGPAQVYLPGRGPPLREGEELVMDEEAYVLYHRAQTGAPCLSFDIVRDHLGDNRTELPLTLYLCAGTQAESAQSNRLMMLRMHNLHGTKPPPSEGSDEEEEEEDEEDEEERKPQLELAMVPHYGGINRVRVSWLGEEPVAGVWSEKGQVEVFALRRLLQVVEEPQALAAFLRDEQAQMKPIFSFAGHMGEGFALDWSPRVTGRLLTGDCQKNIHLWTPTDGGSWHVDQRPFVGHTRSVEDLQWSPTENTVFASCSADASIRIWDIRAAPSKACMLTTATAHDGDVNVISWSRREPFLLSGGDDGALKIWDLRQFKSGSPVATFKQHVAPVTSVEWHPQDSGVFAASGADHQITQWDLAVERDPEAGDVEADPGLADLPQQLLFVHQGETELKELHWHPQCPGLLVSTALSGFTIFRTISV
# SDC2, P34741, UniProt P34741, whole entry: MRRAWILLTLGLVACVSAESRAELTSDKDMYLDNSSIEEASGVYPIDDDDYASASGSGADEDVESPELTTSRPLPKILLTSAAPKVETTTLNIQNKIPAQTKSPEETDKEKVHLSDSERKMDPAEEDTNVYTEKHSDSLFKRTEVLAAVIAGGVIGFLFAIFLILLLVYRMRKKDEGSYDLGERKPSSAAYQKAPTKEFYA
# SRSF1, Q07955, UniProt Q07955, whole entry: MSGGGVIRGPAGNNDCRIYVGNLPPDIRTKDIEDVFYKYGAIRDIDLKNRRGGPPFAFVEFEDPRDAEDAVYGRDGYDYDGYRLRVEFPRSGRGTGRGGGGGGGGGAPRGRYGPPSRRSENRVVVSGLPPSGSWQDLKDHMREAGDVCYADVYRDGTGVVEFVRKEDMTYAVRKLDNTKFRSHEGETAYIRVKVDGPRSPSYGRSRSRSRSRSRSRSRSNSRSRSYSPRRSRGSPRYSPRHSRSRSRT
# SRSF9, Q13242, UniProt Q13242, whole entry: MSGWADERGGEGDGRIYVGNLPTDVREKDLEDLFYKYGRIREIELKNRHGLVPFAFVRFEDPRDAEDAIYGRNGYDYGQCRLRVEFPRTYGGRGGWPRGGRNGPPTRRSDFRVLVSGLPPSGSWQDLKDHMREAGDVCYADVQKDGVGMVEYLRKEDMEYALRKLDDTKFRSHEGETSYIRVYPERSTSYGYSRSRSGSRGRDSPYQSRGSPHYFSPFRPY
# Some of the results follow. Only hits are listed; about a third recur on repeated control peptides.
# Assays:
# Assay in all cases: PRISMA enrichment of interactor (LFQ) in peptide spot vs all other peptide spots (log2 fold change); higher = stronger / more specific binding of the interactor to the peptide
# [1] = biological target: ANP32B, Q92688
# Description: (§1)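 PRISMA: 221 full-length sORF-encoded peptides (3-15 aa), plus SOS1/GLUT1 control peptides, were spot-synthesized on cellulose membranes in triplicate. Membranes were incubated with HEK293T lysate, and bound proteins were identified by LC-MS/MS with LFQ. Enrichment is the log2 fold change versus all other peptide spots; only significant interactors are listed (cutoff c=6, x0=2.8).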
# [2] = biological target: ANP32E, Q9BTT0
# Description: as §1
# [3] = biological target: BRIX1, Q8TDN6
# Description: as §1
# [4] = biological target: C7orf50, Q9BRJ6
# Description: as §1
# [5] = biological target: CTR9, Q6PD62
# Description: as §1
# [6] = biological target: DDX21, Q9NR30
# Description: as §1
# [7] = biological target: EBNA1BP2, Q99848
# Description: as §1
# [8] = biological target: EIF6, P56537
# Description: as §1
# [9] = biological target: GNL2, Q13823
# Description: as §1
# [10] = biological target: GPC4, O75487
# Description: as §1
# [11] = biological target: GRWD1, Q9BQ67
# Description: as §1
# [12] = biological target: GTPBP4, Q9BZE4
# Description: as §1
# [13] = biological target: HTATSF1, O43719
# Description: as §1
# [14] = biological target: IWS1, Q96ST2
# Description: as §1
# [15] = biological target: LARP1, Q6PKG0
# Description: as §1
# [16] = biological target: LLPH, Q9BRT6
# Description: as §1
# [17] = biological target: MAGEB2, O15479
# Description: as §1
# [18] = biological target: MOV10, Q9HCE1
# Description: as §1
# [19] = biological target: MRTO4, Q9UKD2
# Description: as §1
# [20] = biological target: NAT10, Q9H0A0
# Description: as §1
# [21] = biological target: NOP2, P46087
# Description: as §1
# [22] = biological target: PAF1, Q8N7H5
# Description: as §1
# [23] = biological target: RBM28, Q9NW13
# Description: as §1
# [24] = biological target: RBM34, P42696
# Description: as §1
# [25] = biological target: RPL26L1, Q9UNX3
# Description: as §1
# [26] = biological target: RPS29, P62273
# Description: as §1
# [27] = biological target: RSL1D1, O76021
# Description: as §1
# [28] = biological target: SDC1, P18827
# Description: as §1
# [29] = biological target: SDC2, P34741
# Description: as §1
# [30] = biological target: SRSF1, Q07955
# Description: as §1
# [31] = biological target: SRSF10, O75494
# Description: as §1
# [32] = biological target: SRSF5, Q13243
# Description: as §1
# [33] = biological target: SRSF7, Q16629
# Description: as §1
# [34] = biological target: SRSF9, Q13242
# Description: as §1
# [35] = biological target: STAU1, O95793
# Description: as §1
# [36] = biological target: UPF1, Q92900
# Description: as §1
# [37] = biological target: FARP2, O94887
# Description: as §1
# [38] = biological target: PELP1, Q8IZL8
# Description: as §1
# [39] = biological target: UBTF, P17480
# Description: as §1
# [40] = biological target: MRPL10, Q7Z7H8
# Description: as §1
# [41] = biological target: NAF1, Q96HR8
# Description: as §1
# [42] = biological target: NAP1L4, Q99733
# Description: as §1
# [43] = biological target: NPM3, O75607
# Description: as §1
# [44] = biological target: NUCKS1, Q9H1E3
# Description: as §1
# [45] = biological target: PPM1G, O15355
# Description: as §1
# [46] = biological target: PPP1R2, P41236
# Description: as §1
# [47] = biological target: PTGES3, Q15185
# Description: as §1
# [48] = biological target: SRP19, P09132
# Description: as §1
# [49] = biological target: UBXN7, O94888
# Description: as §1
# [50] = biological target: WBP11, Q9Y2W2
# Description: as §1
# [51] = biological target: WDR43, Q15061
# Description: as §1
binder,measurement,setting,value
MGQRGKSE [COBL],PRISMA enrichment of interactor (log2),[1],6.3
same,PRISMA enrichment of interactor (log2),[2],6.07
same,PRISMA enrichment of interactor (log2),[3],5.87
same,PRISMA enrichment of interactor (log2),[4],4.67
same,PRISMA enrichment of interactor (log2),[5],5.43
same,PRISMA enrichment of interactor (log2),[6],6.33
same,PRISMA enrichment of interactor (log2),[7],5.92
same,PRISMA enrichment of interactor (log2),[8],5.19
same,PRISMA enrichment of interactor (log2),[9],5.84
same,PRISMA enrichment of interactor (log2),[10],6.39
same,PRISMA enrichment of interactor (log2),[11],5.03
same,PRISMA enrichment of interactor (log2),[12],6.52
same,PRISMA enrichment of interactor (log2),[13],7.65
same,PRISMA enrichment of interactor (log2),[14],5.19
same,PRISMA enrichment of interactor (log2),[15],5.71
same,PRISMA enrichment of interactor (log2),[16],4.09
same,PRISMA enrichment of interactor (log2),[17],6.2
same,PRISMA enrichment of interactor (log2),[18],6.46
same,PRISMA enrichment of interactor (log2),[19],4.68
same,PRISMA enrichment of interactor (log2),[20],6.06
same,PRISMA enrichment of interactor (log2),[21],5.93
same,PRISMA enrichment of interactor (log2),[22],6.16
same,PRISMA enrichment of interactor (log2),[23],5.4
same,PRISMA enrichment of interactor (log2),[24],5.01
same,PRISMA enrichment of interactor (log2),[25],4.75
same,PRISMA enrichment of interactor (log2),[26],5.35
same,PRISMA enrichment of interactor (log2),[27],5.6
same,PRISMA enrichment of interactor (log2),[28],4.12
same,PRISMA enrichment of interactor (log2),[29],5.45
same,PRISMA enrichment of interactor (log2),[30],5.92
same,PRISMA enrichment of interactor (log2),[31],4.67
same,PRISMA enrichment of interactor (log2),[32],5.51
same,PRISMA enrichment of interactor (log2),[33],5.82
same,PRISMA enrichment of interactor (log2),[34],6.63
same,PRISMA enrichment of interactor (log2),[35],5.49
same,PRISMA enrichment of interactor (log2),[36],5.76
MKKLRLKAAE [KIAA0040],PRISMA enrichment of interactor (log2),[1],6.63
same,PRISMA enrichment of interactor (log2),[2],5.69
same,PRISMA enrichment of interactor (log2),[6],6.35
same,PRISMA enrichment of interactor (log2),[37],4.2
same,PRISMA enrichment of interactor (log2),[38],5.64
same,PRISMA enrichment of interactor (log2),[27],5.24
same,PRISMA enrichment of interactor (log2),[39],6.28
MIIPKGKQSRQCRR [ASB15],PRISMA enrichment of interactor (log2),[1],6.59
same,PRISMA enrichment of interactor (log2),[2],6.45
same,PRISMA enrichment of interactor (log2),[40],5.85
same,PRISMA enrichment of interactor (log2),[41],3.98
same,PRISMA enrichment of interactor (log2),[42],5.05
same,PRISMA enrichment of interactor (log2),[43],6
same,PRISMA enrichment of interactor (log2),[44],5.01
same,PRISMA enrichment of interactor (log2),[45],6.26
same,PRISMA enrichment of interactor (log2),[46],3.94
same,PRISMA enrichment of interactor (log2),[47],5.89
same,PRISMA enrichment of interactor (log2),[48],4.91
same,PRISMA enrichment of interactor (log2),[49],3.99
same,PRISMA enrichment of interactor (log2),[50],5.03
same,PRISMA enrichment of interactor (log2),[51],5.55

# Some of the entries so far, tab-delimited.
binder	measurement	setting	value
MGQRGKSE [COBL]	PRISMA enrichment of interactor (log2)	[3]	5.87
same	PRISMA enrichment of interactor (log2)	[6]	6.33
